Experimental data from patent publication US20050287664A1 (published 2005).
These are yes or no findings as the source states them, for the method shown. Some entries that bind do so weakly or less than the wild type. Sequences can lack the tags named with a protein.

The chains behind the UniProt entries cited, without tags or fusion partners. Residues count along the entry.
UniProt Q99KV1, residues 23-358: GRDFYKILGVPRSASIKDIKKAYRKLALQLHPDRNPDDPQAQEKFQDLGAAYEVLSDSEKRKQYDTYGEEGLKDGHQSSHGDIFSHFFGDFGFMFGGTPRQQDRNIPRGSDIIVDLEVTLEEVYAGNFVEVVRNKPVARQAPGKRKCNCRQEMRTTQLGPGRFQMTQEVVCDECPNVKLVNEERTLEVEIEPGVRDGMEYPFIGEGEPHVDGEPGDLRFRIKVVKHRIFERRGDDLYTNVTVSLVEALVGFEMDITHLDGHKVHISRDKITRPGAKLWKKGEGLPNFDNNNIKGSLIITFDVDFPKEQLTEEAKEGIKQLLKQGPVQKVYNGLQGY

Biological target: C-terminal His-myc-tagged HEDJ/ERdj3 protein secreted from pHEDJ-transfected HEK293T cells (mouse) (UniProt Q99KV1)
Assay: stated with the R1 colony competition assay

- binding: binds
B1: Fc-tagged SD extracellular domain (SDe-Fc) (Fc fusion, not shown: a dimerising Fc or GST)
chain: QDATVTRKDPVFLDCQAHGEGPIKVTWLKNGAKLSENKRIQVLSNGSLYISEAEGRRGEQSDEGFYQCLAVNKYGAILSQKAHLTLSTISAFEVHPVSTEVPEGGVARFSCKISSTPPAVITWEFNRTALPMTMDSRVTALPSGVLQIYDAGPEDAGKYRCVAATHAHKRKSMEASLTIVPANETRSFYMPTIIASPQNVTASLHQTVVLECMATGYPKPIISWSRLDHKSIDVFNTRVLGNGNLIISDVKLQHAGVYVCRATTPGTRNFTVAMATLTVLAPPSFVEWPESLTRPRAGTARFVCQAEGIPSPKMSWLKNGRRIHSNGRIKMYNSKLVINQIIPEDDAIYQCMAENSQGSVLSRARLTVVMSEDRPSAPYNVHAETMSSSAILLAWERPLYNSDKVIAYSVHYMKAEGLNNEEYQVVLGNDTTHYIIDDLEPDSNYTFYIVAYMPMGASQMSDHVTQNTLEDVPLRPPEISLTSRSPTDILISWLPIPAKYRRGQVVLYRLSFRLSTENSIQVVELPGTVHEYLLEGLEPDSVYLVRITAATRVGLGESSVWTSHRTPKATSVKAPKSPELHLEPLNCTTISVRWLQDTEDPAAIRGYKLFYKEEGQQEHGPIFLDTGDLLYTLSGLDPRRKYHVRLLAYNNLEDGYQADQTVSTPGCVSVRDRMVPPPPPPHHLYAKANTSSSIFLHWRRPAFTTAQVINYTIRCNPVGLQNASLVLYLQTSETHMLVQGLEPNTKYEFAVRLHVDQLSSPWSPVVYHTTLPEAPTGPPVGVKVTLIEDDTALVSWKPPDGPETVVTRYTILYASRKAWIAGEWQVLHREGAITMALLENLVAGNVYIVKISASNEVGEGPFPNSVELAVLPKDASESNQRPKRLDSSDAKVYSG
